Measurements reported in PubChem BioAssay AID248 (DTP/NCI, 2004).
The list does not hold the whole screen: it is rich in T/C values a quarter to a half above the control, in often repeated tests (any T/C) and in doses without a T/C. Other doses and runs of a compound stand elsewhere. T/C gives the treated animals as a percentage of the vehicle group. Some entries give survivors of the animals treated and no T/C: the source holds a T/C of zero for them, seemingly a mark for toxic or unscored doses. Counts of survivors are from the toxicity check (mostly the fifth day) where no day follows; animals may have died later. Schedule codes are those of the source, read here as Q, the interval in days (D) or hours (H), X, the number of doses.

Tested on: L1210 leukemia ip in BDF1 mice, survival T/C
Assay: NCI In Vivo Anticancer Drug Screen. Data for tumor model L1210 Leukemia (intraperitoneal) in B6D2F1 (BDF1) mice
Conditions: T/C endpoint: mean survival time; dose: 300.0 mg/kg/injection; schedule: Q01DX001 (ip); vehicle: saline; higher T/C = longer survival

For `CNC(=O)O/N=C/c1ccc([N+](=O)[O-])cc1`, the survivor count was 1 of 6.
